Measurements as given in paper PMC12431657, “Discovery and mechanistic insights of dibenzoylmethane as a broad spectrum inhibitor of coronavirus” (PLOS Pathogens, 2025).
Structures can show the parent of a compound that is named as a salt. Where two headings read alike, the source gives them in different places. Hit rate of the full screen: of about 3,300 compounds, about 60 (2%) showed an effect of 50% or more. The list shows a part of the results.

Test system: HCoV-OC43
Design: species or system RD; HTS, protection from HCoV-OC43 induced cell death, luminescent cell viability (CellCounting-Lite 2.0), inhibition rate
Conditions: 24 h post infection, 1 h compound pre-incubation, 10 µM, inhibitor

Row | Compound | OC43 Inhibition rate [%] | OC43 Inhibition rate (OC43 Inhibition rate, 24 h) [%]
1 | CC(=O)c1ccccc1 [Acetophenone] | 0 | –
2 | COc1cc(C[C@H]2C(=O)OC[C@@H]2Cc2ccc(OC)c(OC)c2)ccc1O [Arctigenin] | -6.1 | –
3 | CC[C@@]1([C@H]2O[C@H]([C@H]3O[C@@](O)(CO)[C@H](C)C[C@@H]3C)C[C@H]2C)CC[C@H]([C@@]2(C)CC[C@]3(C[C@H](O)[C@@H](C)[C@@H]([C@H](C)[C@H](OC)[C@@H](C)C(=O)O)O3)O2)O1 [Monensin sodium salt] | -0.8 | –
4 | C[C@@]12CC[C@@H]3[C@@](CC[C@H]4[C@@]3(C)CCC[C@@]4(C)C(=O)O)(CC1=O)C2 [Isosteviol] | -1.1 | –
5 | Oc1cc(O)cc(-c2cc3ccc(O)cc3o2)c1 [Moracin M] | -0.7 | –
6 | CC(=O)CCC=C(C)C [Sulcatone] | 0.5 | –
7 | O=C(c1ccc(OCCN2CCCCC2)cc1)c1c(-c2ccc(O)cc2)sc2cc(O)ccc12 [Raloxifene (hydrochloride)] | -11.3 | –
8 | CC(=O)O[C@H]1C[C@@]2(C)[C@@H](C[C@@H](O)[C@H]3[C@@]4(C)CC[C@@H](O)[C@@H](C)[C@@H]4CC[C@@]32C)/C1=C(\CCC=C(C)C)C(=O)O [Fusidic acid] | – | 34.6
9 | C[N+]1(C)CCC[C@H]1C(=O)[O-] [Stachydrine hydrochloride] | – | -0.8
10 | O=c1c(O)c(-c2ccc(O)c(O)c2)oc2c(O[C@@H]3O[C@H](CO)[C@@H](O)[C@H](O)[C@H]3O)c(O)cc(O)c12 [Gossypin] | 0.2 | –
11 | CC1(C)CC[C@]2(C(=O)O[C@@H]3O[C@H](CO)[C@@H](O)[C@H](O)[C@H]3O)CC[C@]3(C)C(=CC[C@@H]4[C@@]5(C)CC[C@H](O[C@@H]6O[C@H](C(=O)O)[C@@H](O)[C@H](O)[C@H]6O[C@H]6OC[C@@H](O)[C@H](O)[C@H]6O)C(C)(C)[C@@H]5CC[C@]43C)[C@@H]2C1 [Pseudoginsenoside RT1] | 0.7 | –
12 | CC[C@@H](C(=O)[C@@H](C)[C@@H](O)[C@H](C)CCc1ccc(C)c(O)c1C(=O)O)[C@H]1O[C@](CC)([C@H]2CC[C@](O)(CC)[C@H](C)O2)C[C@@H]1C [Lasalocid (sodium)] | – | -11.5
13 | CC(C)(C(=O)O)C(=O)O [Dimethylmalonic acid] | 0.1 | –
14 | C[C@@H]1O[C@@H](OC[C@H]2O[C@@H](Oc3c(-c4ccc(O)c(O)c4)oc4cc(O)cc(O)c4c3=O)[C@H](O)[C@@H](O)[C@@H]2O)[C@H](O)[C@H](O)[C@H]1O [Rutin (hydrate)] | – | 0.4
15 | CC(=O)O[C@H]1CC[C@]2(C)C3=C(CC[C@H]2C1(C)C)[C@]1(C)C[C@@H](O)[C@H]([C@@H](CCC=C(C)C)C(=O)O)[C@@]1(C)CC3 [3-O-Acetyl-16α-hydroxytrametenolic acid] | -1.3 | –
16 | COc1cc(C[C@@H](CO)[C@H](CO)Cc2ccc(O)c(OC)c2)ccc1O [(+)-Secoisolariciresinol] | – | 2.3
17 | CCCCCCCCCCCCCCCCC(C(=O)O)C(O)(CC(=O)O)C(=O)O (stereo not shown) [Agaric acid] | 6.3 | –
18 | COC(=O)CCCC(=O)O [5-Methoxy-5-oxopentanoic acid] | 5.1 | –
19 | O=C(O)[C@@H]1C[C@H](O)CN1 [cis-4-Hydroxy-L-proline] | 2.9 | –
20 | C=C1CCCc2c(ccc3c2C(=O)C(=O)c2c(C)coc2-3)/C(C)=C/CCc2c1ccc1c2C(=O)C(=O)c2c(C)coc2-1 [Neoprzewaquinone A] | 1.5 | –

Row | Compound | OC43 Inhibition rate [%] | OC43 Inhibition rate (OC43 Inhibition rate, 24 h) [%]
21 | Cc1cc2nc[nH]c2cc1C [5,6-Dimethyl-1H-benzo[d]imidazole] | -0.3 | –
22 | C1CNCCNCCNCCN1 [Cyclen] | 22.4 | –
23 | Oc1cc(O)c2c(c1)O[C@H](c1ccc(O)c(O)c1)[C@@H](O)C2 [(+)-Catechin hydrate] | – | -0.3
24 | CC1=CC(=O)CC(C)(C)[C@@]1(O)/C=C/C(C)=C\C(=O)O [Abscisic acid] | – | -5.8
25 | OC[C@@H](O)[C@H](O)[C@H](O)[C@@H](O)CO [Dulcite] | 0.8 | –
26 | COc1ccc2c(c1OC)CC1c3c(cc4c(c3-2)OCO4)CCN1C (stereo not shown) [Crebanine] | 34.2 | –
27 | COc1ccc2c(c1OC)CN1CCc3cc4c(cc3C1C2)OCO4 (stereo not shown) [Tetrahydroberberine] | -0.2 | –
28 | CC(=O)OCc1ccccc1 [Benzyl acetate] | 0 | –
29 | C=C1CCC[C@]2(C)CC[C@@H](C(C)(C)O)C[C@@H]12 [Beta-Eudesmol] | 2.4 | –
30 | C/C=C(\C)C(=O)O[C@@H]1[C@@H](OC(C)=O)[C@]2(C)[C@H](C(C)=O)CC[C@@]23O[C@]32CC[C@H]3C[C@@H](O[C@H]4C[C@@H](OC)[C@H](O[C@@H]5O[C@H](C)[C@@H](O)[C@@H](OC)[C@H]5O)[C@@H](C)O4)CC[C@]3(C)[C@@H]12 [Tenacissoside G] | 0.5 | –
31 | COc1c(O)cc2c(c1O)[C@@H]1O[C@H](CO)[C@@H](O)[C@H](O)[C@H]1OC2=O [Bergenin] | 0 | –
32 | C[C@H]1CC[C@@]2(OC1)O[C@H]1C[C@H]3[C@@H]4CC[C@@H]5C[C@@H](O[C@@H]6O[C@H](CO)[C@H](O)[C@H](O)[C@H]6O[C@@H]6O[C@H](CO)[C@@H](O)[C@H](O)[C@H]6O)CC[C@]5(C)[C@H]4CC[C@]3(C)[C@H]1[C@@H]2C [Timosaponin AIII] | 5.7 | –
33 | O=C(O)c1ccc(O)cc1 [4-Hydroxybenzoic acid] | 0.1 | –
34 | COc1ccc(C(C)=O)c(O)c1 [Paeonol] | 1.6 | –
35 | C[C@@H]1O[C@@H](O[C@@H]2[C@@H](O)[C@H](OCCc3ccc(O)c(O)c3)O[C@H](CO[C@@H]3O[C@H](CO)[C@@H](O)[C@H](O)[C@H]3O)[C@H]2OC(=O)/C=C/c2ccc(O)c(O)c2)[C@H](O)[C@H](O)[C@H]1O [Echinacoside] | 0 | –
36 | COC1=CC(=O)O[C@@H](/C=C/c2ccc3c(c2)OCO3)C1 [Methylsticin] | -0.1 | –
37 | COc1cc([C@H]2Oc3cc([C@H]4Oc5cc(O)cc(O)c5C(=O)[C@@H]4O)ccc3O[C@@H]2CO)ccc1O [Silibinin] | – | 1.4
38 | COc1ccc(-c2oc3cc(OC)c(OC)c(O)c3c(=O)c2OC)cc1O [Casticin] | 14.3 | –
39 | CC(=O)O[C@H]1CC[C@]2(C)[C@H]3CC=C4[C@@H]5CC(C)(C)CC[C@]5(C(=O)O)CC[C@@]4(C)[C@]3(C)CC[C@H]2C1(C)C [3-O-Acetyloleanolic acid] | 0.2 | –
40 | C[C@@H]1CC[C@]2(C(=O)O[C@@H]3O[C@H](CO)[C@@H](O)[C@H](O)[C@H]3O)CC[C@]3(C)C(=CC[C@@H]4[C@@]5(C)CC[C@H](O[C@@H]6OC[C@H](O)[C@H](O)[C@H]6O)C(C)(C)[C@@H]5CC[C@]43C)[C@@H]2[C@]1(C)O [Ziyuglycoside I] | 0.3 | –

In the list so far, 2 have a furan ring, fused or not:
Row | Compound | OC43 Inhibition rate [%] | OC43 Inhibition rate (OC43 Inhibition rate, 24 h) [%]
5 | Oc1cc(O)cc(-c2cc3ccc(O)cc3o2)c1 [Moracin M] | -0.7 | –
20 | C=C1CCCc2c(ccc3c2C(=O)C(=O)c2c(C)coc2-3)/C(C)=C/CCc2c1ccc1c2C(=O)C(=O)c2c(C)coc2-1 [Neoprzewaquinone A] | 1.5 | –
